Values of other authors in patent US9969973B2, “Methods and compositions for cell attachment and cultivation on planar substrates” (Janssen Biotech, Inc., priority 2008, dated 2018).
Some entries share one result that the patent states for a list of compounds. At least one compound was matched to its structure with a doubt left.

System: embryonic stem cell-derived neural precursor cells
Settings: C3 exoenzyme and/or Y-27632; cited from earlier work

For `C[C@@H](N)[C@H]1CC[C@H](C(=O)Nc2ccncc2)CC1` [Membrane Y26732], the “decrease of dissociation-induced apoptosis (anoikis)” value is listed as 20-30%.
